No constants are given. Whether binding was seen depends on the method and setting. Sequences can lack the tags named with a protein. Each block holds one binder with its values, some of them ahead of it.
Key:
[1] = target: T1, recombinant human pancreatic glucokinase (human), P35557; assay: SEC; HiPrep 16/60 Sephacryl S-200 HR, calibrated; single proteins or equimolar mixtures incubated on ice 30 min; BAD buffer pH 8.5; 4°C; both purified; conditions: remark: other sources report otherwise
T1 chain: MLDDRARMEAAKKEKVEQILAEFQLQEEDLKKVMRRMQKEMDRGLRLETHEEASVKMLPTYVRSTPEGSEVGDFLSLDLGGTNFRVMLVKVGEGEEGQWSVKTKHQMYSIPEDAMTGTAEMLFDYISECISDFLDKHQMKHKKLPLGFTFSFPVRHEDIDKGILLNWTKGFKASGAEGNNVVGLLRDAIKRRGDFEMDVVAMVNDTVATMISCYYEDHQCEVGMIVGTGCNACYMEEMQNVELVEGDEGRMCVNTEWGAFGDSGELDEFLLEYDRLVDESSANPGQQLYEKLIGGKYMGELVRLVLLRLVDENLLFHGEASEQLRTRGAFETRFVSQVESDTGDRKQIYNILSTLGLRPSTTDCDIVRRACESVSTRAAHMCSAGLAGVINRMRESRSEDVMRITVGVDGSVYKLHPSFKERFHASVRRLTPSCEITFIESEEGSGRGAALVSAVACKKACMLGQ

[2] = target: T2, S118D BAD-GST variant (human) (UniProt Q92934); assay: condition: GCK 100 μM titrated into 10–15 μM S118D BAD-GST; ITC; GCK (100 μM) titrated in 13 μL injections into S118D BAD-GST (10–15 μM); BAD buffer pH 8.5; 25°C; both purified
T2 sequence: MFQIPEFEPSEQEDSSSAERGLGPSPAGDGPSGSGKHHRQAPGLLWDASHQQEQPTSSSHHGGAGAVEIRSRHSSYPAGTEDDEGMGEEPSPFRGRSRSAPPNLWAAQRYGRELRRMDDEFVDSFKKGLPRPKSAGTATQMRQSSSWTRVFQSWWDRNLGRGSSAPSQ

[3] = target: T3, FITC-labeled 21-residue peptide containing the BH3 domain of BAD (human); assay: fluorescence polarisation; FITC peptide fixed, GCK varied (methods: 0–400 μM); with and without 0.2 M glucose; also with trifluoroethanol (20–40%); room temperature; both purified
T3 sequence (peptide, FITC on the lysine at peptide position 18 (K(FITC))): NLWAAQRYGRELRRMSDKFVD

[4] = target: T4, recombinant human pancreatic glucokinase (human) (UniProt P35557); assay: ITC; pBH3 peptide (300 μM) titrated into GCK (10 μM); 25 mM potassium phosphate, 25 mM KCl, 4 mM TCEP, 5% DMSO, with and without 200 mM glucose; 25°C; both purified
T4 sequence: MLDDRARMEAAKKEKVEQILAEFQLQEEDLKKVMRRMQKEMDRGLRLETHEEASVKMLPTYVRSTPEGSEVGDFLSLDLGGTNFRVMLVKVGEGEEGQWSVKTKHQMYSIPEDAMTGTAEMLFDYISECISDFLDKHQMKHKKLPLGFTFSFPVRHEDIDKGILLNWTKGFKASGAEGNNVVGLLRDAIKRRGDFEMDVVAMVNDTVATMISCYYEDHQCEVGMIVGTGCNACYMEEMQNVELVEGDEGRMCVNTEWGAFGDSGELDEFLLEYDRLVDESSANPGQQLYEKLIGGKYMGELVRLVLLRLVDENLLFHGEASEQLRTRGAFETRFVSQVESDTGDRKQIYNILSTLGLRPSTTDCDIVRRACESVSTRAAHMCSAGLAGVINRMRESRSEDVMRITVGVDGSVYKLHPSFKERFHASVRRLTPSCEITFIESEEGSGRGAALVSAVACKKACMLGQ

binding [1]: no binding
B1: recombinant human pancreatic glucokinase, P35557 1-465 (enzyme)
chain: MLDDRARMEAAKKEKVEQILAEFQLQEEDLKKVMRRMQKEMDRGLRLETHEEASVKMLPTYVRSTPEGSEVGDFLSLDLGGTNFRVMLVKVGEGEEGQWSVKTKHQMYSIPEDAMTGTAEMLFDYISECISDFLDKHQMKHKKLPLGFTFSFPVRHEDIDKGILLNWTKGFKASGAEGNNVVGLLRDAIKRRGDFEMDVVAMVNDTVATMISCYYEDHQCEVGMIVGTGCNACYMEEMQNVELVEGDEGRMCVNTEWGAFGDSGELDEFLLEYDRLVDESSANPGQQLYEKLIGGKYMGELVRLVLLRLVDENLLFHGEASEQLRTRGAFETRFVSQVESDTGDRKQIYNILSTLGLRPSTTDCDIVRRACESVSTRAAHMCSAGLAGVINRMRESRSEDVMRITVGVDGSVYKLHPSFKERFHASVRRLTPSCEITFIESEEGSGRGAALVSAVACKKACMLGQ

binding [2]: no binding
B2: recombinant human pancreatic glucokinase (enzyme, UniProt P35557 1-465)
chain: MLDDRARMEAAKKEKVEQILAEFQLQEEDLKKVMRRMQKEMDRGLRLETHEEASVKMLPTYVRSTPEGSEVGDFLSLDLGGTNFRVMLVKVGEGEEGQWSVKTKHQMYSIPEDAMTGTAEMLFDYISECISDFLDKHQMKHKKLPLGFTFSFPVRHEDIDKGILLNWTKGFKASGAEGNNVVGLLRDAIKRRGDFEMDVVAMVNDTVATMISCYYEDHQCEVGMIVGTGCNACYMEEMQNVELVEGDEGRMCVNTEWGAFGDSGELDEFLLEYDRLVDESSANPGQQLYEKLIGGKYMGELVRLVLLRLVDENLLFHGEASEQLRTRGAFETRFVSQVESDTGDRKQIYNILSTLGLRPSTTDCDIVRRACESVSTRAAHMCSAGLAGVINRMRESRSEDVMRITVGVDGSVYKLHPSFKERFHASVRRLTPSCEITFIESEEGSGRGAALVSAVACKKACMLGQ
binding [3]: no binding (tested: 10^−9 to 10^−5 M GCK)

binding [4]: no binding (tested: up to 50 μM)
B3: 21-residue phosphorylated peptide containing the BH3 domain of BAD (peptide)
peptide: NLWAAQRYGRELRRMSDKFVD
modifications: phosphoserine at position 118 (peptide position 16)

From publication PMC5300155, “Biochemical and biophysical investigations of the interaction between human glucokinase and pro-apoptotic BAD” (PLoS ONE, 2017)
